# Some of the results follow.
# B1: Vd7LysM (Verticillium dahliae) (protein)
# chain: RRGPEPKYPPAAGTSSYCSYWVDYEGDKSCSRVLEDNVVVLKDFARWNPTVGADCSGIKAGNSYCVEAFGEPEPIEVTTTTRAATTTTQPTATTTTFANGIATPQPTQSGMVTNCNKFHWIAEGVSCSQVISFQKITLADFVKWNPSVKSDCSGMWAGVNVCVGVVGSSTDTAKPTTTAPSNGVVTPQPTQPSMVTNCNKFHWIAKGVTCQQVISYQKISLADFVKWNPSVLSDCSGMWAEVQVCVGVIGSTPTTLATTTTTAGNGVSTPLPTQPGMVTNCAKFHWVAKGVTCNQIYSFQKITLEQFVSYNPTVKSDCSGMQAEVQVCVGLIAGTTPTTTRPPTTTAPGNGVSTPQPTQPGMVTNCAKFHWVAKGVTCNQIYSFQKITLEQFVSFNPTVKSDCTGMQAEVNVCVGLIGGNPTPTQTGNGIATPTPIQPGMVSNCKKFHWIAQGVTCQQVISFQKITLADFVKWNTGVGSDCRTMWAETNVCVGV
# Columns and labels:
# Test in all cases: glycan array binding signal (z-score within array); higher = stronger binding
# Details in all cases: glycan notation: IUPAC condensed, linker removed
# [1] = molecular target: Fuc(a1-2)Gal(b1-4)GlcNAc(b1-3)Gal(b1-4)GlcNAc(b1-3)Gal(b1-4)GlcNAc
# In short: (§1)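 Glycan array binding is given as a within-array Z-score, which can be read as non-binding when negative. The arrays, 3228 of them, came from the Consortium for Functional Glycomics database and were retained only where the protein sequence was available. Z-scores were averaged across arrays of the same protein sequence at different concentrations or buffers and across linkers.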
# [2] = molecular target: Fuc(a1-2)Gal(b1-4)GlcNAc(b1-3)GalNAc
# In short: as §1
# [3] = molecular target: Fuc(a1-2)Gal(b1-4)GlcNAc(b1-3)[Fuc(a1-2)Gal(b1-4)GlcNAc(b1-6)]GalNAc
# In short: as §1
# [4] = molecular target: Fuc(a1-2)Gal(b1-4)GlcNAc(b1-3)[Fuc(a1-3)[Gal(b1-4)]GlcNAc(b1-6)]Gal(b1-4)Glc
# In short: as §1
# [5] = molecular target: Fuc(a1-2)Gal(b1-4)GlcNAc(b1-6)GalNAc
# In short: as §1
# [6] = molecular target: Fuc(a1-2)Gal(b1-4)GlcNAc6S
# In short: as §1
# [7] = molecular target: Fuc(a1-2)Gal(b1-4)[Fuc(a1-3)]GlcNAc
# In short: as §1
# [8] = molecular target: Fuc(a1-2)Gal(b1-4)[Fuc(a1-3)]GlcNAc(b1-2)Man(a1-3)[Fuc(a1-2)Gal(b1-4)[Fuc(a1-3)]GlcNAc(b1-2)Man(a1-6)]Man(b1-4)GlcNAc(b1-4)[Fuc(a1-6)]GlcNAc
# In short: as §1
# [9] = molecular target: Fuc(a1-2)Gal(b1-4)[Fuc(a1-3)]GlcNAc(b1-2)[Fuc(a1-2)Gal(b1-4)[Fuc(a1-3)]GlcNAc(b1-4)]Man(a1-3)[Fuc(a1-2)Gal(b1-4)[Fuc(a1-3)]GlcNAc(b1-2)Man(a1-6)]Man(b1-4)GlcNAc(b1-4)GlcNAc
# In short: as §1
# [10] = molecular target: Fuc(a1-2)Gal(b1-4)[Fuc(a1-3)]GlcNAc(b1-3)Gal(b1-4)[Fuc(a1-3)]GlcNAc
# In short: as §1
# [11] = molecular target: Fuc(a1-2)Gal(b1-4)[Fuc(a1-3)]GlcNAc(b1-3)Gal(b1-4)[Fuc(a1-3)]GlcNAc(b1-3)Gal(b1-4)[Fuc(a1-3)]GlcNAc
# In short: as §1
# [12] = molecular target: Fuc(a1-2)Gal(b1-4)[Fuc(a1-3)]GlcNAc(b1-3)GalNAc
# In short: as §1
# [13] = molecular target: Fuc(a1-2)Gal(b1-4)[Fuc(a1-3)]GlcNAc(b1-3)[Neu5Ac(a2-6)Gal(b1-4)GlcNAc(b1-6)]Gal(b1-4)Glc
# In short: as §1
# [14] = molecular target: Fuc(a1-2)Gal3S(b1-4)GlcNAc
# In short: as §1
# [15] = molecular target: Fuc(a1-2)Gal6S(b1-3)GlcNAc
# In short: as §1
# [16] = molecular target: Fuc(a1-2)Gal6S(b1-3)GlcNAc6S
# In short: as §1
# Fuc(a1-2)Gal6S(b1-4)Glc = molecular target: Fuc(a1-2)Gal6S(b1-4)Glc
# In short: as §1
# [17] = molecular target: Fuc(a1-2)Gal6S(b1-4)Glc6S
# In short: as §1
# Fuc(a1-2)[Gal(a1-3)]Gal = molecular target: Fuc(a1-2)[Gal(a1-3)]Gal
# In short: as §1
# [18] = molecular target: Fuc(a1-2)[Gal(a1-3)]Gal(b1-3)GalNAc
# In short: as §1
# [19] = molecular target: Fuc(a1-2)[Gal(a1-3)]Gal(b1-3)GalNAc(b1-3)Gal(a1-4)Gal(b1-4)Glc
# In short: as §1
# [20] = molecular target: Fuc(a1-2)[Gal(a1-3)]Gal(b1-3)GlcNAc
# In short: as §1
# [21] = molecular target: Fuc(a1-2)[Gal(a1-3)]Gal(b1-3)GlcNAc(b1-2)Man(a1-3)[Fuc(a1-2)[Gal(a1-3)]Gal(b1-3)GlcNAc(b1-2)Man(a1-6)]Man(b1-4)GlcNAc(b1-4)GlcNAc
# In short: as §1
# [22] = molecular target: Fuc(a1-2)[Gal(a1-3)]Gal(b1-3)GlcNAc(b1-2)Man(a1-3)[Fuc(a1-2)[Gal(a1-3)]Gal(b1-3)GlcNAc(b1-2)Man(a1-6)]Man(b1-4)GlcNAc(b1-4)[Fuc(a1-6)]GlcNAc
# In short: as §1
# [23] = molecular target: Fuc(a1-2)[Gal(a1-3)]Gal(b1-3)GlcNAc(b1-3)GalNAc
# In short: as §1
# [24] = molecular target: Fuc(a1-2)[Gal(a1-3)]Gal(b1-3)GlcNAc(b1-6)GalNAc
# In short: as §1
# [25] = molecular target: Fuc(a1-2)[Gal(a1-3)]Gal(b1-4)Glc
# In short: as §1
# [26] = molecular target: Fuc(a1-2)[Gal(a1-3)]Gal(b1-4)GlcNAc
# In short: as §1
# [27] = molecular target: Fuc(a1-2)[Gal(a1-3)]Gal(b1-4)GlcNAc(b1-2)Man
# In short: as §1
# [28] = molecular target: Fuc(a1-2)[Gal(a1-3)]Gal(b1-4)GlcNAc(b1-2)Man(a1-3)[Fuc(a1-2)[Gal(a1-3)]Gal(b1-4)GlcNAc(b1-2)Man(a1-6)]Man(b1-4)GlcNAc(b1-4)GlcNAc
# In short: as §1
binder,measurement,setting,value
B1,glycan array binding signal (z-score),[1],3.25
same,glycan array binding signal (z-score),[2],0.678
same,glycan array binding signal (z-score),[3],-0.836
same,glycan array binding signal (z-score),[4],-0.245
same,glycan array binding signal (z-score),[5],0.512
same,glycan array binding signal (z-score),[6],2.14
same,glycan array binding signal (z-score),[7],0.288
same,glycan array binding signal (z-score),[8],2.24
same,glycan array binding signal (z-score),[9],0.129
same,glycan array binding signal (z-score),[10],1.8
same,glycan array binding signal (z-score),[11],-0.384
same,glycan array binding signal (z-score),[12],1.17
same,glycan array binding signal (z-score),[13],-0.181
same,glycan array binding signal (z-score),[14],-1.02
same,glycan array binding signal (z-score),[15],-0.291
same,glycan array binding signal (z-score),[16],-0.732
same,glycan array binding signal (z-score),Fuc(a1-2)Gal6S(b1-4)Glc,-0.066
same,glycan array binding signal (z-score),[17],0.638
same,glycan array binding signal (z-score),Fuc(a1-2)[Gal(a1-3)]Gal,0.38
same,glycan array binding signal (z-score),[18],-0.534
same,glycan array binding signal (z-score),[19],-1.54
same,glycan array binding signal (z-score),[20],-0.681
same,glycan array binding signal (z-score),[21],1.06
same,glycan array binding signal (z-score),[22],0.42
same,glycan array binding signal (z-score),[23],-0.679
same,glycan array binding signal (z-score),[24],-0.24
same,glycan array binding signal (z-score),[25],0.731
same,glycan array binding signal (z-score),[26],0.191
same,glycan array binding signal (z-score),[27],0.793
same,glycan array binding signal (z-score),[28],-1.74

# Shown bar-delimited: part of the list above
binder | measurement | setting | value
B1 | glycan array binding signal (z-score) | [1] | 3.25
same | glycan array binding signal (z-score) | [4] | -0.245
same | glycan array binding signal (z-score) | [12] | 1.17
same | glycan array binding signal (z-score) | [13] | -0.181
same | glycan array binding signal (z-score) | [17] | 0.638
same | glycan array binding signal (z-score) | Fuc(a1-2)[Gal(a1-3)]Gal | 0.38
same | glycan array binding signal (z-score) | [23] | -0.679
